Data from patent US7469185B2, “Primary rat hepatocyte toxicity modeling” (Ocimum Biosolutions, Inc., priority 2002, dated 2008).

Experiments:
primary rat hepatocytes = experiment: Microarray gene expression analysis (Affymetrix rat array) of toxin-exposed hepatocytes, with linear discriminant score; assay type: cell-based; settings: 24 hrs, high dose
Description: (§1) Identification of toxicity markers was performed by microarray analysis and by the AlamarBlue® assay, a classical measure of cytotoxicity. The AlamarBlue® assay was performed in triplicate.
(§2) The source of the primary rat hepatocytes was Sprague Dawley Outbred CDs Rats (CRL:CD®[SD] IGS BR, Charles River Laboratories). […] Primary rat hepatocytes were received the day after the cells were removed from the animals. After arrival, the cells, the cells were incubated overnight (˜15 hrs) before the toxin was added to the cultures. […] Toxin or vehicle was administered to hepatocyte cultures as follows. For each treatment, i.e., vehicle alone, vehicle+toxin at low dose, or vehicle+toxin at high dose, cells were harvested after 3, 6 and 24-hour incubations with the toxin solution or with the vehicle.
More than 10^7 cells are typically prepared for each sample. RNA was collected at 3, 6 and 24 hours following addition of the toxin according to the following procedure.
Each flask contained ˜10-20 million cells. The contents of each flask were mixed vigorously for one minute with a vortex mixer and then aspirated up and down 5 times with a pipette. The contents of each flask (˜12 ml each) was collected into a 50 ml conical polypropylene tissue culture tube (Falcon), snap frozen in liquid nitrogen and stored at ≦−86° C.
Microarray sample preparation was conducted with minor modifications, following the protocols set forth in the Affymetrix GeneChip® Expression Analysis Manual. Frozen cells were ground to a powder using a Spex Certiprep 6800 Freezer Mill. Total RNA was extracted with Trizol (GibcoBRL) utilizing the manufacturer's protocol. […] Double stranded cDNA was generated from mRNA using the SuperScript Choice system (GibcoBRL). First strand cDNA synthesis was primed with a T7-(dT24) oligonucleotide. The cDNA was phenol-chloroform extracted and ethanol precipitated to a final concentration of […]. From 2 μg of cDNA, cRNA was synthesized using Ambion's T7 MegaScript in vitro Transcription Kit.
To biotin label the cRNA, nucleotides Bio-11-CTP and Bio-16-UTP (Enzo Diagnostics) were added to the reaction. Following a 37° C. incubation for six hours, impurities were removed from the labeled cRNA following the RNeasy Mini kit protocol (Qiagen). cRNA was fragmented (fragmentation buffer consisting of 200 mM Tris-acetate, pH 8.1, 500 mM KOAc, 150 mM MgOAc) for thirty-five minutes at 94° C. Following the Affymetrix protocol, 55 μg of fragmented cRNA was hybridized on the Affymetrix rat array set for twenty-four hours at 60 rpm in a 45° C. hybridization oven. The chips were washed and stained with Streptavidin Phycoerythrin (SAPE) (Molecular Probes) in Affymetrix fluidics stations. To amplify staining, SAPE solution was added twice with an anti-streptavidin biotinylated antibody (Vector Laboratories) staining step in between. Hybridization to the probe arrays was detected by fluorometric scanning (Hewlett Packard Gene Array Scanner). Data was analyzed using Affymetrix GeneChip® version 3.0 and Expression Data Mining Tool (EDMT) software (version 1.0), S-Plus, and the GeneExpress® software system.
Each gene is identified by its Gene Logic identification number and can be cross-referenced to a gene name and representative SEQ ID NO. in Table 1.

in vitro = settings: male, Sprague-Dawley, rat
Description: as §1, §2
The AlamarBlue® assay was performed as follows, using only the 24-hour time point samples. • 1. […] Alternatively, two absorbance readings can be measured for the oxidized (600 nm) and the reduced (570 nm) form of AlamarBlueg. After obtaining absorbance readings, results were calculated according to the manufacturer's protocol provided in the product description. • 9. The data were evaluated to determine whether or not the toxin reduced cell viability. If so, the dose of the toxin that reduced cell viability by ˜10-20% was determined. […]

CCCCc1oc2ccccc2c1C(=O)c1cc(I)c(OCCN(CC)CC)c(I)c1 [Amiodarone]
Mean Tox, GLGC ID NO. 16650 (primary rat hepatocytes): 984.8695 | Mean Tox, GLGC ID NO. 16708 (primary rat hepatocytes): 153.2685 | Mean Tox, GLGC ID NO. 16865 (primary rat hepatocytes): 290.6443 | Mean Tox, GLGC ID NO. 16895 (primary rat hepatocytes): 8.7830 | Mean Tox, GLGC ID NO. 16947 (primary rat hepatocytes): 89.0373 | Mean Tox, GLGC ID NO. 17039 (primary rat hepatocytes): 245.4835 | Mean Tox, GLGC ID NO. 17271 (primary rat hepatocytes): 48.2335 | Mean Tox, GLGC ID NO. 17604 (primary rat hepatocytes): 154.1105 | Mean Tox, GLGC ID NO. 17754 (primary rat hepatocytes): 861.7003 | Mean Tox, GLGC ID NO. 17999 (primary rat hepatocytes): 430.8943 | Mean Tox, GLGC ID NO. 18069 (primary rat hepatocytes): 119.5903 | Mean Tox, GLGC ID NO. 18578 (primary rat hepatocytes): 365.2230 | Mean Tox, GLGC ID NO. 18612 (primary rat hepatocytes): 388.6913 | Mean Tox, GLGC ID NO. 18725 (primary rat hepatocytes): 15.4600 | Mean Tox, GLGC ID NO. 18730 (primary rat hepatocytes): 259.6305 | Mean Tox, GLGC ID NO. 18765 (primary rat hepatocytes): 188.8203 | Mean Tox, GLGC ID NO. 18800 (primary rat hepatocytes): 585.7013 | Mean Tox, GLGC ID NO. 18881 (primary rat hepatocytes): 33.6695 | Mean Tox, GLGC ID NO. 18883 (primary rat hepatocytes): 127.7325 | Mean Tox, GLGC ID NO. 18909 (primary rat hepatocytes): 67.8935 | Mean Tox, GLGC ID NO. 19059 (primary rat hepatocytes): 81.7113 | Mean Tox, GLGC ID NO. 19101 (primary rat hepatocytes): 282.6973 | Mean Tox, GLGC ID NO. 19144 (primary rat hepatocytes): 23.3323 | Mean Tox, GLGC ID NO. 19177 (primary rat hepatocytes): 116.8100 | Mean Tox, GLGC ID NO. 19206 (primary rat hepatocytes): 90.8053 | Mean Tox, GLGC ID NO. 19226 (primary rat hepatocytes): 314.5943 | Mean Tox, GLGC ID NO. 19227 (primary rat hepatocytes): 237.5478 | Mean Tox, GLGC ID NO. 19555 (primary rat hepatocytes): 116.1578 | Mean Tox, GLGC ID NO. 19631 (primary rat hepatocytes): 102.9018 | Mean Tox, GLGC ID NO. 19679 (primary rat hepatocytes): 19.2213 | Mean Tox, GLGC ID NO. 20405 (primary rat hepatocytes): 39.4923 | Mean Tox, GLGC ID NO. 20421 (primary rat hepatocytes): 96.5418 | Mean Tox, GLGC ID NO. 20586 (primary rat hepatocytes): 20.1963 | Mean Tox, GLGC ID NO. 20698 (primary rat hepatocytes): 10.6448 | Mean Tox, GLGC ID NO. 20700 (primary rat hepatocytes): 938.3848 | Mean Tox, GLGC ID NO. 20745 (primary rat hepatocytes): 1186.4775 | Mean Tox, GLGC ID NO. 20746 (primary rat hepatocytes): 1890.1518 | Mean Tox, GLGC ID NO. 20778 (primary rat hepatocytes): 113.9043 | Mean Tox, GLGC ID NO. 20960 (primary rat hepatocytes): 936.4035 | Mean Tox, GLGC ID NO. 20971 (primary rat hepatocytes): 152.5923 | Mean Tox, GLGC ID NO. 21001 (primary rat hepatocytes): 253.3903 | Mean Tox, GLGC ID NO. 21350 (primary rat hepatocytes): 59.4465 | Mean Tox, GLGC ID NO. 21842 (primary rat hepatocytes): 1093.5040 | Mean Tox, GLGC ID NO. 21882 (primary rat hepatocytes): 375.2395 | Mean Tox, GLGC ID NO. 21885 (primary rat hepatocytes): 125.6663 | Mean Tox, GLGC ID NO. 22079 (primary rat hepatocytes): 1171.8738 | Mean Tox, GLGC ID NO. 22387 (primary rat hepatocytes): 1501.9503 | Mean Tox, GLGC ID NO. 22413 (primary rat hepatocytes): 1529.8625 | Mean Tox, GLGC ID NO. 22586 (primary rat hepatocytes): 142.2270 | Mean Tox, GLGC ID NO. 22746 (primary rat hepatocytes): 17.7768 | Mean Tox, GLGC ID NO. 22801 (primary rat hepatocytes): 437.7643 | Mean Tox, GLGC ID NO. 22883 (primary rat hepatocytes): 196.2880 | Mean Tox, GLGC ID NO. 23162 (primary rat hepatocytes): 84.0273 | Mean Tox, GLGC ID NO. 23192 (primary rat hepatocytes): 202.7878 | Mean Tox, GLGC ID NO. 23200 (primary rat hepatocytes): 229.5073 | Mean Tox, GLGC ID NO. 23324 (primary rat hepatocytes): 199.6150 | Mean Tox, GLGC ID NO. 23343 (primary rat hepatocytes): 85.2673 | Mean Tox, GLGC ID NO. 23660 (primary rat hepatocytes): 451.7370 | Mean Tox, GLGC ID NO. 23808 (primary rat hepatocytes): 130.0633 | Mean Tox, GLGC ID NO. 24105 (primary rat hepatocytes): 80.1058 | Mean Tox, GLGC ID NO. 24326 (primary rat hepatocytes): 1265.2950 | Mean Tox, GLGC ID NO. 24362 (primary rat hepatocytes): 414.5140 | Mean Tox, GLGC ID NO. 24453 (primary rat hepatocytes): 8.2448 | Mean Tox, GLGC ID NO. 24645 (primary rat hepatocytes): 39.1603 | Mean Tox, GLGC ID NO. 24670 (primary rat hepatocytes): 39.2255 | Mean Tox, GLGC ID NO. 24693 (primary rat hepatocytes): 5.9428 | Mean Tox, GLGC ID NO. 25204 (primary rat hepatocytes): 20.8115 | Mean Tox, GLGC ID NO. 25325 (primary rat hepatocytes): 104.6418 | Mean Tox, GLGC ID NO. 25326 (primary rat hepatocytes): 879.7590 | Mean Tox, GLGC ID NO. 25694 (primary rat hepatocytes): 27.6885 | Mean Tox, GLGC ID NO. 25799 (primary rat hepatocytes): 573.4228 | Mean Tox, GLGC ID NO. 26032 (primary rat hepatocytes): 67.3053 | viability at 24 h, 6 uM (in vitro): ~100% | viability at 24 h, 60 uM (in vitro): 80 to 85%
